Results on 2 substances are retold here after paper PMC10248797.

Amino acid sequences for entries named in this document (tags omitted). A change or cut given only in a name is not applied to a line headed by its entry. Residues count along the entry.
UniProt Q13409: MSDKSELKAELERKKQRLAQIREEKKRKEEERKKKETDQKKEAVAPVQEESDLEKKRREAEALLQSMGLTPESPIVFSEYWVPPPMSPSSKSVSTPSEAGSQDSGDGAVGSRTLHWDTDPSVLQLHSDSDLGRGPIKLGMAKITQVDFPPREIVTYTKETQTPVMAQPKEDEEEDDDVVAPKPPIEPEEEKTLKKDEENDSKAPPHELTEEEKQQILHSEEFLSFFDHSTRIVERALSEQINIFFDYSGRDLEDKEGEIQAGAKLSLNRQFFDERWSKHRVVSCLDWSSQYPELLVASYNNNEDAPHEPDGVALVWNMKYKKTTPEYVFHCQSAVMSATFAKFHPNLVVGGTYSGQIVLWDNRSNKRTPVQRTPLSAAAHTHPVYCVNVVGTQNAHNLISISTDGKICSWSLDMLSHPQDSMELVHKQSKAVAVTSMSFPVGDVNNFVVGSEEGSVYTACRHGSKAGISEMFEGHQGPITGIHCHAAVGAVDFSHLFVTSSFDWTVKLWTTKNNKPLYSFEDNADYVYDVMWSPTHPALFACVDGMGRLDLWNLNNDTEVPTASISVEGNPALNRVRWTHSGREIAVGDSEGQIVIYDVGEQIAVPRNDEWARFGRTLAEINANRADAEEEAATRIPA
UniProt O43237: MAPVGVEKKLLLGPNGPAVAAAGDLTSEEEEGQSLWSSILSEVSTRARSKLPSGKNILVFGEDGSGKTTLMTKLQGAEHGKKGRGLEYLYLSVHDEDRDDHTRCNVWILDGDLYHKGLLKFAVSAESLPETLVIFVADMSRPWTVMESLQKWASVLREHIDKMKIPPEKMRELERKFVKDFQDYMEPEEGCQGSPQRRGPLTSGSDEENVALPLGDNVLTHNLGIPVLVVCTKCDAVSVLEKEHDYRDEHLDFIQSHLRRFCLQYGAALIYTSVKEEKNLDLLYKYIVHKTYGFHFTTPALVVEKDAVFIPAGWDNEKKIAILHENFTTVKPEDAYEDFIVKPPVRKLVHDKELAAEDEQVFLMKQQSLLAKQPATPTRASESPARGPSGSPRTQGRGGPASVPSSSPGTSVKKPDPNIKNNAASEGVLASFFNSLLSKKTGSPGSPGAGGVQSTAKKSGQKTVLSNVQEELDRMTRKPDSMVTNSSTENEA
UniProt P63172: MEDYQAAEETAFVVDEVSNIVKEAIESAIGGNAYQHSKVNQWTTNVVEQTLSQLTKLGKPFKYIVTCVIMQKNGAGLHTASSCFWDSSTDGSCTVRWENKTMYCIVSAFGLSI
UniProt Q9NP97: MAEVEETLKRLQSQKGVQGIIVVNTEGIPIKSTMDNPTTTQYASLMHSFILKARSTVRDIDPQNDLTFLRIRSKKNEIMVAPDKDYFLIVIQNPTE
UniProt P63167: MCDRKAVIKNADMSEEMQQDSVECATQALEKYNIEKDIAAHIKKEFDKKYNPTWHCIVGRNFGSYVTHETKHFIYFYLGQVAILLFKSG
UniProt Q9Y2I6, residues 1-702: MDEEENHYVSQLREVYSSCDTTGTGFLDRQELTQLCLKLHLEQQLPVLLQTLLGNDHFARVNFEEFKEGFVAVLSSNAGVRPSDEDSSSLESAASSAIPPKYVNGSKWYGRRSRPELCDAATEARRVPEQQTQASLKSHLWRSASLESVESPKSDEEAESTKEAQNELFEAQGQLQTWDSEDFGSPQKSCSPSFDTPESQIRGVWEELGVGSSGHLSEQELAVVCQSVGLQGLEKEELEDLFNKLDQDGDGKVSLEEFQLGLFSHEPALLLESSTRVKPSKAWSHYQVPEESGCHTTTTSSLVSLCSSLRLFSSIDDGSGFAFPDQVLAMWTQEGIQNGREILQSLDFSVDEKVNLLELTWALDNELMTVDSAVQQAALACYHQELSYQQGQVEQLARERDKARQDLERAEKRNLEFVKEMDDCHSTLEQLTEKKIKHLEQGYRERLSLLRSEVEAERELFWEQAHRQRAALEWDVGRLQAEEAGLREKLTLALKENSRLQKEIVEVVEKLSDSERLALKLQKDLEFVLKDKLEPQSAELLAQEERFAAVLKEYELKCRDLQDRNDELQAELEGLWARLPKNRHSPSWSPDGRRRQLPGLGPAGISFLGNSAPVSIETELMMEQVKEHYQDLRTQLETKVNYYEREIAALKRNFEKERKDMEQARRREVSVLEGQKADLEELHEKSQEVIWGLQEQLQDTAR

Assay [1] concerns the target T1, tagless FL-Ndel1 (i.e., no HaloTag) (UniProt Q9GZM8).
T1 sequence: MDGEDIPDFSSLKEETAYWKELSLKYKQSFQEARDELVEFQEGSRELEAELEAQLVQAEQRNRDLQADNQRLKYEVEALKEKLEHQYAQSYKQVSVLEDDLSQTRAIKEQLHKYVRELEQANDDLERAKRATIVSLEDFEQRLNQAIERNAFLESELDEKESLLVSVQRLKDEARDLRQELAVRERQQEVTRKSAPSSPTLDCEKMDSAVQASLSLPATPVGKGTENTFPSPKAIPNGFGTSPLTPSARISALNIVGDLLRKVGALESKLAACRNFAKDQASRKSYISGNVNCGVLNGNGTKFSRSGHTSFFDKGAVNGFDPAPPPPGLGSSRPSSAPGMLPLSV
The assay is described as follows: pull-down; 50 nM Halo-Lis1 on HaloTag beads; 5 nM dynein with 100 nM WT Ndel1 without HaloTag; depletion of dynein from solution; both purified.

Assay [2] concerns the target T2, Halo-tagged Ndel1(1-192), N-terminal coiled coil only, with C-terminal 6X-His tag (UniProt Q9GZM8).
T2 sequence: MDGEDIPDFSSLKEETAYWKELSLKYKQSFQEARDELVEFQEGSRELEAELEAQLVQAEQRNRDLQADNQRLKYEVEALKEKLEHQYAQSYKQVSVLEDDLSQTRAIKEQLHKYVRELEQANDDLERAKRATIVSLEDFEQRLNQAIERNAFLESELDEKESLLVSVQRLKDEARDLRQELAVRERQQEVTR
The experiment in a line: pull-down; 30 nM Halo-Ndel1 construct on HaloTag beads; 5 nM dynein in the absence and presence of 30 nM Lis1; depletion of dynein from solution; both purified.

In assay [3] the target is T3, Halo-tagged full-length Ndel1 with C-terminal 6X-His tag (UniProt Q9GZM8).
T3 sequence: T1 sequence
Described as above.

Assay [4] addresses T4, Halo-tagged full-length Ndel1 with the four CDK1 sites mutated to aspartic acid (S198D; T219D; S231D; S242D), with C-terminal 6X-His tag (UniProt Q9GZM8).
T4 sequence: T1 sequence with S198D, T219D, S231D, S242D
The description is as above.

The target of assay [5] is SNAP-tagged, recombinant full-length human cytoplasmic dynein-1 with all associated accessory chains (human) (UniProt Q14204+Q13409+O43237+P63172+Q9NP97+P63167). The experiment in a line: pull-down; 90 nM FL-Ndel1 on Ni-NTA magnetic beads via the C-terminal 6X-His tag; 5 nM dynein with 10 nM dynactin and 150 nM NINL; depletion of dynein from solution; both purified.

Numbering of substitutions follows the chain as printed. No constants are given. Whether binding was seen depends on the method and setting. Some entries that bind do so weakly or less than the wild type. For some assays here: Where a sequence is shown, tags or fusion partners need not be part of it.

“SNAP-tagged, recombinant full-length human cytoplasmic dynein-1 with all associated accessory chains (from UniProt Q14204 1-4646; Q13409-3 1-612; O43237 1-492; P63172 1-113; Q9NP97 1-96; P63167 1-89) (complex)”: the binding entry in assay [1], in assay [2], in assay [3] and in assay [4] was “binds” in each case.

“Halo-NINL(1-702) (from UniProt Q9Y2I6 1-702) (domain or fragment)”: in assay [5], the binding entry was “binds”.
